Literature values in patent publication US12337066B2 (priority 2020, dated 2025).
Counter-ions that a name gives are not always drawn. Some of these results come from one statement about several compounds together.

Details: listed examples of highly water-soluble active pharmaceutical ingredients

Row | Structure (SMILES) | water solubility
1 | C=C1CC[C@@]2(O)[C@H]3Cc4ccc(O)c5c4[C@@]2(CCN3CC2CC2)[C@H]1O5 [nalmefene hydrochloride] | greater than 100 mg/mL
2 | Cn1c(=O)c2[nH]cnc2n(C)c1=O [aminophylline] | greater than 100 mg/mL
3 | O=C1CC[C@@]2(O)[C@H]3Cc4ccc(O)c5c4[C@@]2(CCN3CC2CC2)[C@H]1O5 [naltrexone hydrochloride] | greater than 100 mg/mL
